Source: publication PMC8243409 (Journal of chemical information and modeling, 2021)

Sequences of proteins named here, by UniProt entry; tags and fusion partners are left off. A change or cut given only in a name is not applied to a line headed by its entry.
UniProt P0ABQ4: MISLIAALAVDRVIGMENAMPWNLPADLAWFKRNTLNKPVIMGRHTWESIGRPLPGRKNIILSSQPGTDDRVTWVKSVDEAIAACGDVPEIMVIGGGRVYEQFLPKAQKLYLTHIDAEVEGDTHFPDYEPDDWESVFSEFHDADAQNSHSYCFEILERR

Biological target: E. coli dihydrofolate reductase (DHFR) (Escherichia coli, UniProt P0ABQ4)
Test: steady-state kinetics dose response
Assay type: biochemical

COc1cc2ncnc(Nc3ccc(F)c(Cl)c3)c2cc1OCCCN1CCOCC1 [NSC715055, Gefitinib]
IC50: ~64 µM
